Measured values: patent publication US20240292840A1, “TRIAZOLE COMPOUNDS FOR THE CONTROL OF INVERTEBRATE PESTS” (priority 2021, published 2024)
Some entries share one result that the patent states for a list of compounds. For at least one compound, name, drawing or mass did not settle the structure.

How the values were obtained:
Type in all cases: in vivo
[1] = system: Tobacco Budworm (Heliothis virescens); experiment: B.4 Tobacco budworm egg/larval test on insect diet in microtiter plates; settings: at 2500 ppm; egg and larval mortality; 5 days
[2] = system: Boll Weevil (Anthonomus grandis); experiment: B.5 Boll weevil egg/larval test on insect diet in microtiter plates; settings: at 2500 ppm; egg and larval mortality; 5 days
Description: B.5 Boll Weevil (Anthonomus grandis)
For evaluating control of boll weevil (Anthonomus grandis), the test unit consisted of 96-well-microtiter plates containing an insect diet and 5-10 A. grandis eggs.
The compounds were formulated using a solution containing 75% v/v water and 25% v/v DMSO. Different concentrations of formulated compounds were sprayed onto the insect diet at 5 μl, using a custom-built micro atomizer, at two replications.
After application, microtiter plates were incubated at about 25±1° C. and about 75±5% relative humidity for 5 days. Egg and larval mortality was then visually assessed.

[3] = system: Yellow Fever Mosquito (Aedes aegypti); settings: at 2500 ppm; larval mortality; 2 days
Description: B.8 Yellow Fever Mosquito (Aedes aegypti)
For evaluating control of yellow fever mosquito (Aedes aegypti) the test unit consisted of 96-well-microtiter plates containing 200 μl of tap water per well and 5-15 freshly hatched A. aegypti larvae.
The active compounds were formulated using a solution containing 75% (v/v) water and 25% (v/v) DMSO. Different concentrations of formulated compounds or mixtures were sprayed onto the insect diet at 2.5 μl, using a custom-built micro atomizer, at two replications.
After application, microtiter plates were incubated at 28±1° C., 80±5% RH for 2 days. Larval mortality was then visually assessed.

[4] = system: Diamond Back Moth (Plutella xylostella); experiment: B.1 Diamond back moth leaf-dip test on cabbage leaves; settings: at 300 ppm; 3rd instar larvae; 72 hours after treatment
[5] = system: Orchid Thrips (Dichromothrips corbetti); experiment: B.7 Orchid thrips floral-immersion test; settings: at 300 ppm; adult thrips; 72 hours after treatment
[6] = system: Green Peach Aphid (Myzus persicae); experiment: B.2 Green peach aphid systemic test, artificial diet in 96-well microtiter plates; settings: at 2500 ppm; adult aphids; 3 days

Which “mortality in comparison with untreated controls” value (from here on “mortality in comparison”) [1] does the source give for CC(=NOCC(F)(F)F)n1ncnc1C(C)NC(=O)c1cc(C(F)(F)F)cc(C(F)(F)F)c1 (mixture of isomers) [I.1-4] here?
Its value is “at least 75%”.

And the “mortality in comparison” value [2]?
Its value is “at least 75%”.

What about the “mortality in comparison” value [3] of the same compound?
Its value is “at least 75%”.

What about the “mortality in comparison” value [4] of the same compound?
Its value is “at least 75%”.

How did the “mortality in comparison” value [2] turn out when CON=C(C#N)n1cnc(C(C)NC(=O)c2cc(C(F)(F)F)cc(C(F)(F)F)c2)n1 (stereo not shown) [1.2-4] was run?
Its value is “at least 75%”.

And the “mortality in comparison” value [3]?
Its value is “at least 75%”.

CON=C(C#N)n1cnnc1C(C)NC(=O)c1cc(C(F)(F)F)cc(C(F)(F)F)c1 (stereo not shown) [1.3-5] was tested. Which “mortality in comparison” value [3] did it give?
The value was “at least 75%”.

For CCN(C)C(=O)C(=NOC)n1ncnc1C(C)NC(=O)c1cc(C(F)(F)F)cc(C(F)(F)F)c1 (stereo not shown) [I.1-8], which “mortality in comparison” value [3] is on record?
Its value is “at least 75%”.

And the “mortality in comparison” value [4]?
The value was “at least 75%”.

Which results are given for CON=C(C(N)=O)n1ncnc1C(C)NC(=O)c1cc(C(F)(F)F)cc(C(F)(F)F)c1 (stereo not shown) [I.1-11]?
mortality in comparison with untreated controls [5]: at least 75%; mortality in comparison with untreated controls [2]: at least 75%; mortality in comparison with untreated controls [6]: at least 75%; mortality in comparison with untreated controls [3]: at least 75%; mortality in comparison with untreated controls [4]: at least 75%

With CON=C(C)n1ncnc1C(C)NC(=O)c1cc(Cl)cc(C(F)(F)F)c1 (stereo not shown) [I.1-14] as the compound, how does the “mortality in comparison” value [6] read?
The value was “at least 75%”.

What about the “mortality in comparison” value [3] of the same compound?
The value was “at least 75%”.

How did the “mortality in comparison” value [2] turn out when CON=C(C)n1ncnc1C(C)NC(=O)c1cc(Br)cc(Br)c1 (stereo not shown) [I.1-16] was run?
The value was “at least 75%”.

What about the “mortality in comparison” value [3] of the same compound?
The value was “at least 75%”.

What does the source list for CON=C(C)n1ncnc1C(C)NC(=O)c1cccc(OC(F)(F)F)c1 (stereo not shown) [I.1-21]?
mortality in comparison with untreated controls [2]: at least 75%; mortality in comparison with untreated controls [3]: at least 75%

What does the source list for CON=C(C)n1ncnc1C(C)NC(=O)c1cc(Cl)cc(Cl)c1 (stereo not shown) [I.1-23]?
mortality in comparison with untreated controls [2]: at least 75%; mortality in comparison with untreated controls [6]: at least 75%; mortality in comparison with untreated controls [3]: at least 75%

How did the “mortality in comparison” value [2] turn out when CON=C(C)n1ncnc1C(C)NC(=O)c1cccc(SC(F)(F)F)c1 (stereo not shown) [I.1-26] was run?
Its value is “at least 75%”.

What about the “mortality in comparison” value [3] of the same compound?
Its value is “at least 75%”.

For CON=C(C)n1ncnc1C(C)NC(=O)c1cc(Cl)c(F)c(Cl)c1 (stereo not shown) [I.1-27], which “mortality in comparison” value [3] is on record?
The value was “at least 75%”.

What does the source list for CON=C(C)n1ncnc1C(C)NC(=O)c1cc(Cl)cc(C#N)c1 (stereo not shown) [I.1-31]?
mortality in comparison with untreated controls [2]: at least 75%; mortality in comparison with untreated controls [3]: at least 75%

What does the source list for CON=C(C)n1ncnc1C(C)NC(=O)c1cccc(S(=O)(=O)C(F)(F)F)c1 (stereo not shown) [I.1-32]?
mortality in comparison with untreated controls [2]: at least 75%; mortality in comparison with untreated controls [6]: at least 75%; mortality in comparison with untreated controls [3]: at least 75%

Which results are given for CON=C(C)n1ncnc1C(C)NC(=O)c1cc(Cl)cc(S(=O)(=O)C(F)(F)F)c1 (stereo not shown) [I.1-33]?
mortality in comparison with untreated controls [1]: at least 75%; mortality in comparison with untreated controls [2]: at least 75%; mortality in comparison with untreated controls [3]: at least 75%

With CON=C(C)n1ncnc1C(C)NC(=O)c1cc(Br)cc(OC(C)C)c1 (stereo not shown) [I.1-35] as the compound, how does the “mortality in comparison” value [3] read?
Its value is “at least 75%”.

With CON=C(C)n1ncnc1C(C)NC(=O)c1cc(Cl)cc(S(C)(=O)=O)c1 (stereo not shown) [I.1-38] as the compound, how does the “mortality in comparison” value [2] read?
The value was “at least 75%”.

And the “mortality in comparison” value [6]?
Its value is “at least 75%”.

And the “mortality in comparison” value [3]?
The value was “at least 75%”.

With CON=C(C)n1ncnc1C(C)NC(=O)c1cc(Br)cc(C(C)C)c1 (stereo not shown) [I.1-39] as the compound, how does the “mortality in comparison” value [3] read?
Its value is “at least 75%”.

How did the “mortality in comparison” value [2] turn out when CON=C(C)n1ncnc1C(C)NC(=O)c1cc(Br)c2c(c1)OCO2 (stereo not shown) [I.1-40] was run?
Its value is “at least 75%”.

What about the “mortality in comparison” value [3] of the same compound?
Its value is “at least 75%”.

Which “mortality in comparison” value [1] does the source give for CON=C(C)n1ncnc1C(C)NC(=O)c1cc(Br)cc(S(C)(=O)=O)c1 (stereo not shown) [I.1-41] here?
The value was “at least 75%”.

And the “mortality in comparison” value [2]?
The value was “at least 75%”.

And the “mortality in comparison” value [6]?
Its value is “at least 75%”.

What about the “mortality in comparison” value [3] of the same compound?
Its value is “at least 75%”.

For CON=C(C)n1ncnc1C(C)NC(=O)c1cc(Br)cc(OC(F)(F)F)c1 (stereo not shown) [I.1-46], which “mortality in comparison” value [2] is on record?
The value was “at least 75%”.

And the “mortality in comparison” value [6]?
Its value is “at least 75%”.

And the “mortality in comparison” value [3]?
The value was “at least 75%”.

How did the “mortality in comparison” value [3] turn out when CON=C(C)n1ncnc1C(C)NC(=O)c1cccc(S(=O)(=O)NC(C)C)c1 (stereo not shown) [I.1-48] was run?
The value was “at least 75%”.

How did the “mortality in comparison” value [1] turn out when CON=C(C)n1ncnc1C(C)NC(=O)c1cc(Cl)cc(SC)c1 (stereo not shown) [I.1-50] was run?
Its value is “at least 75%”.

What about the “mortality in comparison” value [2] of the same compound?
Its value is “at least 75%”.

What about the “mortality in comparison” value [6] of the same compound?
Its value is “at least 75%”.

What about the “mortality in comparison” value [3] of the same compound?
The value was “at least 75%”.

How did the “mortality in comparison” value [2] turn out when CON=C(C)n1ncnc1C(C)NC(=O)c1cc(OC)cc(OC)c1 (stereo not shown) [I.1-55] was run?
The value was “at least 75%”.

And the “mortality in comparison” value [6]?
The value was “at least 75%”.

Which “mortality in comparison” value [3] does the source give for CC(=NOCc1ccnc(C(F)(F)F)c1)n1ncnc1C(C)NC(=O)c1cc(Cl)cc(C(F)(F)F)c1 (stereo not shown) [I.1-58] here?
The value was “at least 75%”.

CC(=NO)n1ncnc1C(C)NC(=O)c1cc(Cl)cc(C(F)(F)F)c1 (stereo not shown) [I.1-59] was tested. Which “mortality in comparison” value [1] did it give?
Its value is “at least 75%”.

And the “mortality in comparison” value [2]?
Its value is “at least 75%”.

What about the “mortality in comparison” value [3] of the same compound?
Its value is “at least 75%”.

CC(=NOCc1ccc(F)cc1)n1ncnc1C(C)NC(=O)c1cc(Cl)cc(C(F)(F)F)c1 (stereo not shown) [I.1-60] was tested. Which “mortality in comparison” value [3] did it give?
Its value is “at least 75%”.

Which “mortality in comparison” value [2] does the source give for CC(=NOCC#N)n1ncnc1C(C)NC(=O)c1cc(Cl)cc(C(F)(F)F)c1 (stereo not shown) [I.1-62] here?
Its value is “at least 75%”.

What about the “mortality in comparison” value [6] of the same compound?
The value was “at least 75%”.

And the “mortality in comparison” value [3]?
Its value is “at least 75%”.

CCCON=C(C)n1ncnc1C(C)NC(=O)c1cc(Cl)cc(C(F)(F)F)c1 (stereo not shown) [I.1-63] was tested. Which “mortality in comparison” value [3] did it give?
Its value is “at least 75%”.
